The results are deposited in PubChem (AID504749; NCATS, 2011).

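Malaria parasite (P. falciparum) lines kept in red blood cells; parasite DNA is measured by SYBR Green fluorescence after lysis, 72 h after compound addition. Each compound was titrated across a series from about 0.000037 to 29 µM. The number is the fitted AC50, the concentration giving a half-maximal change in signal; a lower value means higher potency, whether the curve shows a decrease or an increase. Calls follow the curve class and fit quality: every row here is inconclusive, covering signal-raising curves and weak, poorly fitted, partial or highest-dose-only inhibition curves.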

Values are in µM. All entries here are filed as inconclusive. Only part of the assay is shown, chiefly results filed as inconclusive. A potency from a partial, single-point or poor curve is only a rough figure.

For CO[C@H]1/C=C/O[C@@]2(C)Oc3c(C)c(O)c4c(O)c(c5c(c4c3C2=O)NC2(CCN(CC(C)C)CC2)N=5)=NC(=O)/C(C)=C\C=C\[C@H](C)[C@H](O)[C@@H](C)[C@@H](O)[C@@H](C)[C@H](OC(C)=O)[C@@H]1C [CP305] the result was fitted potency 13.46 µM (inhibitor, single point).
For CO[C@H]1/C=C/O[C@@]2(C)Oc3c(C)c(O)c4c(O)c(c5c(c4c3C2=O)NC2(CCN(CC(C)C)CC2)N=5)=NC(=O)/C(C)=C\C=C\[C@H](C)[C@H](O)[C@@H](C)[C@@H](O)[C@@H](C)[C@H](OC(C)=O)[C@@H]1C [CP203] the result was fitted potency 19.01 µM (inhibitor, single point).
For CO[C@H]1/C=C/O[C@@]2(C)Oc3c(C)c(O)c4c(O)c(c5c(c4c3C2=O)NC2(CCN(CC(C)C)CC2)N=5)=NC(=O)/C(C)=C\C=C\[C@H](C)[C@H](O)[C@@H](C)[C@@H](O)[C@@H](C)[C@H](OC(C)=O)[C@@H]1C [CP291] the result was fitted potency 15.1 µM (inhibitor, single point).
For CO[C@H]1/C=C/O[C@@]2(C)Oc3c(C)c(O)c4c(O)c(c5c(c4c3C2=O)NC2(CCN(CC(C)C)CC2)N=5)=NC(=O)/C(C)=C\C=C\[C@H](C)[C@H](O)[C@@H](C)[C@@H](O)[C@@H](C)[C@H](OC(C)=O)[C@@H]1C [CP238] the result was fitted potency 11.22 µM (inhibitor, single point).
For CO[C@H]1/C=C/O[C@@]2(C)Oc3c(C)c(O)c4c(O)c(c5c(c4c3C2=O)NC2(CCN(CC(C)C)CC2)N=5)=NC(=O)/C(C)=C\C=C\[C@H](C)[C@H](O)[C@@H](C)[C@@H](O)[C@@H](C)[C@H](OC(C)=O)[C@@H]1C [3D7] the result was fitted potency 10 µM (inhibitor, single point).
For CO[C@H]1/C=C/O[C@@]2(C)Oc3c(C)c(O)c4c(O)c(c5c(c4c3C2=O)NC2(CCN(CC(C)C)CC2)N=5)=NC(=O)/C(C)=C\C=C\[C@H](C)[C@H](O)[C@@H](C)[C@@H](O)[C@@H](C)[C@H](OC(C)=O)[C@@H]1C [CP265] the result was fitted potency 10 µM (inhibitor, single point).
For CO[C@H]1/C=C/O[C@@]2(C)Oc3c(C)c(O)c4c(O)c(c5c(c4c3C2=O)NC2(CCN(CC(C)C)CC2)N=5)=NC(=O)/C(C)=C\C=C\[C@H](C)[C@H](O)[C@@H](C)[C@@H](O)[C@@H](C)[C@H](OC(C)=O)[C@@H]1C [PC15] the result was fitted potency 11.22 µM (inhibitor, single point).
For CO[C@H]1/C=C/O[C@@]2(C)Oc3c(C)c(O)c4c(O)c(c5c(c4c3C2=O)NC2(CCN(CC(C)C)CC2)N=5)=NC(=O)/C(C)=C\C=C\[C@H](C)[C@H](O)[C@@H](C)[C@@H](O)[C@@H](C)[C@H](OC(C)=O)[C@@H]1C [CP262] the result was fitted potency 19.01 µM (inhibitor, single point).
For CO[C@H]1/C=C/O[C@@]2(C)Oc3c(C)c(O)c4c(O)c(c5c(c4c3C2=O)NC2(CCN(CC(C)C)CC2)N=5)=NC(=O)/C(C)=C\C=C\[C@H](C)[C@H](O)[C@@H](C)[C@@H](O)[C@@H](C)[C@H](OC(C)=O)[C@@H]1C [JCK] the result was fitted potency 11.22 µM (inhibitor, single point).
For CO[C@H]1/C=C/O[C@@]2(C)Oc3c(C)c(O)c4c(O)c(c5c(c4c3C2=O)NC2(CCN(CC(C)C)CC2)N=5)=NC(=O)/C(C)=C\C=C\[C@H](C)[C@H](O)[C@@H](C)[C@@H](O)[C@@H](C)[C@H](OC(C)=O)[C@@H]1C [CP185] the result was fitted potency 17.78 µM (inhibitor, single point).
For CO[C@H]1/C=C/O[C@@]2(C)Oc3c(C)c(O)c4c(O)c(c5c(c4c3C2=O)NC2(CCN(CC(C)C)CC2)N=5)=NC(=O)/C(C)=C\C=C\[C@H](C)[C@H](O)[C@@H](C)[C@@H](O)[C@@H](C)[C@H](OC(C)=O)[C@@H]1C [CP192] the result was fitted potency 19.01 µM (inhibitor, single point).
For CO[C@H]1/C=C/O[C@@]2(C)Oc3c(C)c(O)c4c(O)c(c5c(c4c3C2=O)NC2(CCN(CC(C)C)CC2)N=5)=NC(=O)/C(C)=C\C=C\[C@H](C)[C@H](O)[C@@H](C)[C@@H](O)[C@@H](C)[C@H](OC(C)=O)[C@@H]1C [CP297] the result was fitted potency 19.01 µM (inhibitor, partial curve, poor fit).
For CO[C@H]1/C=C/O[C@@]2(C)Oc3c(C)c(O)c4c(O)c(c5c(c4c3C2=O)NC2(CCN(CC(C)C)CC2)N=5)=NC(=O)/C(C)=C\C=C\[C@H](C)[C@H](O)[C@@H](C)[C@@H](O)[C@@H](C)[C@H](OC(C)=O)[C@@H]1C [CP215] the result was fitted potency 19.01 µM (inhibitor, single point).
For CO[C@H]1/C=C/O[C@@]2(C)Oc3c(C)c(O)c4c(O)c(c5c(c4c3C2=O)NC2(CCN(CC(C)C)CC2)N=5)=NC(=O)/C(C)=C\C=C\[C@H](C)[C@H](O)[C@@H](C)[C@@H](O)[C@@H](C)[C@H](OC(C)=O)[C@@H]1C [FAB9] the result was fitted potency 17.78 µM (inhibitor, single point).
For CO[C@H]1/C=C/O[C@@]2(C)Oc3c(C)c(O)c4c(O)c(c5c(c4c3C2=O)NC2(CCN(CC(C)C)CC2)N=5)=NC(=O)/C(C)=C\C=C\[C@H](C)[C@H](O)[C@@H](C)[C@@H](O)[C@@H](C)[C@H](OC(C)=O)[C@@H]1C [CP286] the result was fitted potency 11.22 µM (inhibitor, single point).
For CO[C@H]1/C=C/O[C@@]2(C)Oc3c(C)c(O)c4c(O)c(c5c(c4c3C2=O)NC2(CCN(CC(C)C)CC2)N=5)=NC(=O)/C(C)=C\C=C\[C@H](C)[C@H](O)[C@@H](C)[C@@H](O)[C@@H](C)[C@H](OC(C)=O)[C@@H]1C [CP247] the result was fitted potency 10 µM (inhibitor, single point).
For CO[C@H]1/C=C/O[C@@]2(C)Oc3c(C)c(O)c4c(O)c(c5c(c4c3C2=O)NC2(CCN(CC(C)C)CC2)N=5)=NC(=O)/C(C)=C\C=C\[C@H](C)[C@H](O)[C@@H](C)[C@@H](O)[C@@H](C)[C@H](OC(C)=O)[C@@H]1C [CP329] the result was fitted potency 16.94 µM (inhibitor, single point).

The first 2 entries again:

SMILES	condition	fitted potency (µM)	curve as filed
CO[C@H]1/C=C/O[C@@]2(C)Oc3c(C)c(O)c4c(O)c(c5c(c4c3C2=O)NC2(CCN(CC(C)C)CC2)N=5)=NC(=O)/C(C)=C\C=C\[C@H](C)[C@H](O)[C@@H](C)[C@@H](O)[C@@H](C)[C@H](OC(C)=O)[C@@H]1C	CP305	13.46	inhibitor, single point
CO[C@H]1/C=C/O[C@@]2(C)Oc3c(C)c(O)c4c(O)c(c5c(c4c3C2=O)NC2(CCN(CC(C)C)CC2)N=5)=NC(=O)/C(C)=C\C=C\[C@H](C)[C@H](O)[C@@H](C)[C@@H](O)[C@@H](C)[C@H](OC(C)=O)[C@@H]1C	CP203	19.01	inhibitor, single point